In article PMC7819943, “Rice protein-binding microarrays: a tool to detect cis-acting elements near promoter regions in rice” one finds binding signal data, which are given here for 42 sequences.

Some of the results follow.

For the experiment, the target named is T1, OsSMF1 (Oryza sativa, UniProt Q6ZLB0 1-436).
T1 sequence: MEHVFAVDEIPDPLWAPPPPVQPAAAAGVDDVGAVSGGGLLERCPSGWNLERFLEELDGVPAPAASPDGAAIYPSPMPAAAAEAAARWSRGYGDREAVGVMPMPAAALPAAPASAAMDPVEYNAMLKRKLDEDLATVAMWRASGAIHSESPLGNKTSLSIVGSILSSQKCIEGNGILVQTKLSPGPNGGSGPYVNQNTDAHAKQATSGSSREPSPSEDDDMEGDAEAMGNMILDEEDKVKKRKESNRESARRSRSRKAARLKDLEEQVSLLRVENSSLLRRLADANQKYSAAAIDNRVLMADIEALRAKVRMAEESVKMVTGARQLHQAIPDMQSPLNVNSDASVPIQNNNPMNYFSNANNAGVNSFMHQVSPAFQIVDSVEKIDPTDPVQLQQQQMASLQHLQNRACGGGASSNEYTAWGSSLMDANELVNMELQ
Put plainly: protein-binding microarray (RPBM); PBS, 2% BSA, 51.3 ng/ul salmon testes DNA, 50 uM zinc acetate, 200 nM TF, 25 C, 1 h; high values mean tight binding. Conditions: protein: recombinant; tags: N-terminal polyhistidine and DsRed monomer fusion (pET32a); chain copies: 2; label: CyDye5-dUTP incorporated in the synthesized complementary strand; 3' TTTTT single-stranded linker to array surface; dsDNA, one strand shown. In outline: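 Transcription factors were made in E. coli BL21-CodonPlus as N-terminal fusions to a polyhistidine tag and DsRed, then purified on Ni–NTA. After primer extension with Cy5-dUTP and blocking with 2% BSA, a custom Agilent array was exposed for 1 h at 25 °C to 200 nM protein in PBS, 2% BSA, salmon testes DNA and 50 µM zinc acetate. Washed arrays were scanned on an Axon 4000B, and the binding signal is per-feature fluorescence intensity in arbitrary units.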
On to “CTGAAGCTGCTTCCTGCCGTGCGTGTATAAGATGATCACCCGGAGTCACCTAGTGCAG”, for which the binding signal is 3450 fluorescence intensity (a.u.).

Consider “GCTCTGGTACTAGCCGTACGATGACGCCCAATAATTCAACCGGAGTCACCTAGTGCAG”, for which the binding signal is 3750 fluorescence intensity (a.u.).

Turning to “CTTCTCTCGTCTCTTCTCTTGTCACAACACAATACTGCAGCGGAGTCACCTAGTGCAG”, the binding signal was 3980 fluorescence intensity (a.u.).

“GAAGGACCTAGAGTAAACGGTTTCTGATTTTGCTATATATCGGAGTCACCTAGTGCAG”: the binding signal is 3400 fluorescence intensity (a.u.).

In the case of “CTATAGGCTCTCTACAAGAGATCCATGTCAGCATATTTTCCGGAGTCACCTAGTGCAG”, the binding signal is 8270 fluorescence intensity (a.u.).

As for “GCTTTGGGATTATAAAGATGCACTATATAACTTGTGTCAGCGGAGTCACCTAGTGCAG”, the binding signal was 3290 fluorescence intensity (a.u.).

On to “AACACCTTGGAGTCGGGACAGACCTGACGCGGCCGCCGGGCGGAGTCACCTAGTGCAG”, for which the binding signal is 4130 fluorescence intensity (a.u.).

“GAACCGAAACCTGGGAGAGATCGAAACGAGGCTGCGTCATCGGAGTCACCTAGTGCAG”: the binding signal was 5370 fluorescence intensity (a.u.).

Regarding “GGGAAGAAAGAAGATGATGATGAGGCTGACACGTGGGCCCCGGAGTCACCTAGTGCAG”, the binding signal is 14500 fluorescence intensity (a.u.).

On to “AGCCGTCGCTTGCACGCGTCCACGTACTTTGTCAACAAATCGGAGTCACCTAGTGCAG”, for which the binding signal is 3660 fluorescence intensity (a.u.).

Take “GTAGCCTCCTTATGTGTCACTGACAGTGGGCCCCACAGGACGGAGTCACCTAGTGCAG”: the binding signal was 4520 fluorescence intensity (a.u.).

Turning to “GAACGATGACGGCGCGATGGCCGCCGCCGTGGCGCGGACGCGGAGTCACCTAGTGCAG”, the binding signal is 3210 fluorescence intensity (a.u.).

In the case of “GACCTAGTAGGGTGTCATTCTCACGACTTGGATGATGCTTCGGAGTCACCTAGTGCAG”, the binding signal is 6070 fluorescence intensity (a.u.).

Regarding “TTTGCCTCCTCATCTCCTTTACGTGGGCTTTTCTATCCCACGGAGTCACCTAGTGCAG”, the binding signal is 5040 fluorescence intensity (a.u.).

For the sequence “TTCTGAGTGTATAATTAATGTTTATGTGGTCACGTACTTGCGGAGTCACCTAGTGCAG”, the binding signal is 3620 fluorescence intensity (a.u.).

With “CCCTCCTCTTAACTCCGCATCATCGCATCCTCTCTCTCTCCGGAGTCACCTAGTGCAG”, the binding signal was 3700 fluorescence intensity (a.u.).

In the case of “TGAAGATGAAGATTTTGGTGACACGCATTTCAAACTGCTACGGAGTCACCTAGTGCAG”, the binding signal was 4980 fluorescence intensity (a.u.).

With “TGCTCGTCCCAGTCTCTGCCACGTGGGCCCCACACGCACCCGGAGTCACCTAGTGCAG”, the binding signal is 17700 fluorescence intensity (a.u.).

With “ACTCAACAGATTAACTTAAATATGAGCCTGTTGCTGACTGCGGAGTCACCTAGTGCAG”, the binding signal was 3760 fluorescence intensity (a.u.).

Regarding “CCTGACCCACATGTCATTGACTCATGTGGGTTCTAGATGTCGGAGTCACCTAGTGCAG”, the binding signal is 6670 fluorescence intensity (a.u.).

“TTGAAACTAACAGGGCCTTTACCGACAAGTCAGCCCACCCCGGAGTCACCTAGTGCAG”: the binding signal is 3340 fluorescence intensity (a.u.).

Turning to “CTCCAATACACAATGTGTATATGACAGGTAGACCCATGTGCGGAGTCACCTAGTGCAG”, the binding signal was 3400 fluorescence intensity (a.u.).

Consider “TTATTTGGTGTTGTCAGGTCATATTCACCAATGAGTCGAACGGAGTCACCTAGTGCAG”, for which the binding signal was 3640 fluorescence intensity (a.u.).

Regarding “AGTTGCCGGCGGTTCTCCCTAGCCGCTGACGCGTAGCTGCCGGAGTCACCTAGTGCAG”, the binding signal is 5650 fluorescence intensity (a.u.).

Turning to “CATAGATTAATATGAAATATATAACTCCACAAATATGCAACGGAGTCACCTAGTGCAG”, the binding signal was 3500 fluorescence intensity (a.u.).

As for “TGTGAAGGGTAGTAATTAAGACCCGTCATGGATGAGTGCTCGGAGTCACCTAGTGCAG”, the binding signal is 3660 fluorescence intensity (a.u.).

For the sequence “CGTCACGACGGGGCCGTACTTCTTGAACAGCGTCAGCAGGCGGAGTCACCTAGTGCAG”, the binding signal is 6140 fluorescence intensity (a.u.).

As for “GAAATCTACCATCATGATAATTGCATCATTCTTAGTTGCTCGGAGTCACCTAGTGCAG”, the binding signal was 3280 fluorescence intensity (a.u.).

“AGCCCCGACCCCGATGATTGCCGCGTGGACAACCGTAGAACGGAGTCACCTAGTGCAG”: the binding signal was 4190 fluorescence intensity (a.u.).

Turning to “TGGTCGGTGCCGCACGTCACAGCCGCCAAATCATCCTCCTCGGAGTCACCTAGTGCAG”, the binding signal was 8440 fluorescence intensity (a.u.).

Regarding “ACCATTTCTTCACATCACTGGGTCTATGAAACAATTTTAGCGGAGTCACCTAGTGCAG”, the binding signal was 3820 fluorescence intensity (a.u.).

Turning to “CGATGTGGACAAGTGAAAGGCACTTATGTGGCAATTTGTGCGGAGTCACCTAGTGCAG”, the binding signal is 3760 fluorescence intensity (a.u.).

As to “GTTCGTACTTCATTTCTTCTGTAGATGAAGATAGAGATAACGGAGTCACCTAGTGCAG”, the binding signal is 28000 fluorescence intensity (a.u.).

“CGAGTGGCTTTTCTTGTAAAAGAATTGCGTAATAGGCGTGCGGAGTCACCTAGTGCAG”: the binding signal was 4150 fluorescence intensity (a.u.).

On to “AGATCCTGTAGTGCTTCATGAAGATGATCAGACAGCACATCGGAGTCACCTAGTGCAG”, for which the binding signal is 3300 fluorescence intensity (a.u.).

Regarding “CTCATCCAGCTACAGTCATCCAGAGACAGCCTGCCTCAGCCGGAGTCACCTAGTGCAG”, the binding signal was 3510 fluorescence intensity (a.u.).

As to “CTACATCGAATTTATACCGTATTAGATTACCTGATAGAGGCGGAGTCACCTAGTGCAG”, the binding signal was 22400 fluorescence intensity (a.u.).

For “GGCCATGTCCATACACGGCAGACTCACACAACCAACATTCCGGAGTCACCTAGTGCAG”, the binding signal is 3280 fluorescence intensity (a.u.).

For the sequence “GCGACACGTCGCGACGCCGCTTGCCACGCGCCACGCGCGACGGAGTCACCTAGTGCAG”, the binding signal was 5080 fluorescence intensity (a.u.).

Consider “GTTAGATGGGTAAGTGACTCACTTACCTCACATTAGTGACCGGAGTCACCTAGTGCAG”, for which the binding signal was 4960 fluorescence intensity (a.u.).

As to “TGTCCACGTAAGTTGGGTCATCGTGCCCACGTTCTGTAATCGGAGTCACCTAGTGCAG”, the binding signal is 4590 fluorescence intensity (a.u.).

Consider “GTGTATGACGTGTTGGTTTGCTGCCCGAACTTGCCATGCACGGAGTCACCTAGTGCAG”, for which the binding signal was 13200 fluorescence intensity (a.u.).
